Reference: patent publication US20210230263A1
No constants are given. Whether binding was seen depends on the method and setting. Some binding calls cover weakened binding; strength is not graded here.

Legend:
[1] = target: T1, human IL-22 (human) (UniProt Q9GZX6); assay: ELISA on coated antigen (1 ug/ml), antibody at 100 ng/ml, detection with anti-hIgG-HRP, OD450
T1 sequence (looked up): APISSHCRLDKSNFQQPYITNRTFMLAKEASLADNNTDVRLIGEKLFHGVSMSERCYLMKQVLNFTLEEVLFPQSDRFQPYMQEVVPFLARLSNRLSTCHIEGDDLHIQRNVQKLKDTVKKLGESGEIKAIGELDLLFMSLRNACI

[2] = target: T2, mouse IL-22 (mouse) (UniProt Q9JJY9); assay: as above
T2 sequence (looked up): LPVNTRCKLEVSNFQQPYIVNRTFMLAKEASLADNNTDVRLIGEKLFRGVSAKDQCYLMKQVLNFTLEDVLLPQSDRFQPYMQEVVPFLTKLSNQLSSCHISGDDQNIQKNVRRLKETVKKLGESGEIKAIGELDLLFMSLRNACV

binding [1]: binds
binding [2]: binds
B1: CPE-LC-E049K (antibody, V domains shown)
VH: QVQLVQSGAEVKKPGASVKVSCKASGYIFTSYWIHWIRQPPGKGLEWIGRIYPGTGNTYYNEKFKGRVTISADKSISTAYLQWSSLKASDTAMYYCARSYDSSCAYWGQGTLVTVSS
VL: AIQLTQSPSSLSASVGDRVTITCSASSSVSYMHWYLQKPGQSPQLLIYKTSKLASGVPSRFSGSGSGTDFTFTISSLEAEDAATYYCQQWSSNPYITFGQGTKVEIKR
